From publication PMC11269669

Chains of the proteins cited; added tags and fusions are not shown. Lines headed by an entry give the natural chain unless they say otherwise; changes in a name come on top.
UniProt Q14498: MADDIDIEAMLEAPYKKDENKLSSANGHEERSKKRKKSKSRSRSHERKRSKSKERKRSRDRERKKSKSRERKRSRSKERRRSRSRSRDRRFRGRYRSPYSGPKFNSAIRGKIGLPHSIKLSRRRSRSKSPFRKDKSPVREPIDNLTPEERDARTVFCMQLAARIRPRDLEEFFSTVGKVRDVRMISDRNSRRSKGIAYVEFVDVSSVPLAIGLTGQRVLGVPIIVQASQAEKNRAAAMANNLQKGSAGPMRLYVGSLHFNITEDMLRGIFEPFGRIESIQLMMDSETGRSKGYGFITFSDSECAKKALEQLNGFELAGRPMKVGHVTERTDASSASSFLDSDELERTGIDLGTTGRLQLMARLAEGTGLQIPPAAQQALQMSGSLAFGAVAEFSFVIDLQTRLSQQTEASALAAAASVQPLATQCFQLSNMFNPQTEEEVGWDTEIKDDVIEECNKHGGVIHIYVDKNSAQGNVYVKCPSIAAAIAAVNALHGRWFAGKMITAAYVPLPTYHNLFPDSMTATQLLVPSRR

Target: His-RBM39-ΔRRM1 (His-tagged RBM39 with the RRM1 domain deleted) (UniProt Q14498)
Assay: co-IP; His-vector, His-full-length and domain-deleted RBM39 plasmids transfected into HCT116 cells; lysates immunoprecipitated with His antibody, western blot

B1: endogenous MORC2 (Microrchidia family CW-type zinc finger 2) (protein, UniProt Q9Y6X9 1-1032)
chain: MAFTNYSSLNRAQLTFEYLHTNSTTHEFLFGALAELVDNARDADATRIDIYAERREDLRGGFMLCFLDDGAGMDPSDAASVIQFGKSAKRTPESTQIGQYGNGLKSGSMRIGKDFILFTKKEDTMTCLFLSRTFHEEEGIDEVIVPLPTWNARTREPVTDNVEKFAIETELIYKYSPFRTEEEVMTQFMKIPGDSGTLVIIFNLKLMDNGEPELDIISNPRDIQMAETSPEGTKPERRSFRAYAAVLYIDPRMRIFIHGHKVQTKRLSCCLYKPRMYKYTSSRFKTRAEQEVKKAEHVARIAEEKAREAESKARTLEVRLGGDLTRDSRVMLRQVQNRAITLRREADVKKRIKEAKQRALKEPKELNFVFGVNIEHRDLDGMFIYNCSRLIKMYEKVGPQLEGGMACGGVVGVVDVPYLVLEPTHNKQDFADAKEYRHLLRAMGEHLAQYWKDIAIAQRGIIKFWDEFGYLSANWNQPPSSELRYKRRRAMEIPTTIQCDLCLKWRTLPFQLSSVEKDYPDTWVCSMNPDPEQDRCEASEQKQKVPLGTFRKDMKTQEEKQKQLTEKIRQQQEKLEALQKTTPIRSQADLKKLPLEVTTRPSTEEPVRRPQRPRSPPLPAVIRNAPSRPPSLPTPRPASQPRKAPVISSTPKLPALAAREEASTSRLLQPPEAPRKPANTLVKTASRPAPLVQQLSPSLLPNSKSPREVPSPKVIKTPVVKKTESPIKLSPATPSRKRSVAVSDEEEVEEEAERRKERCKRGRFVVKEEKKDSNELSDSAGEEDSADLKRAQKDKGLHVEVRVNREWYTGRVTAVEVGKHVVRWKVKFDYVPTDTTPRDRWVEKGSEDVRLMKPPSPEHQSLDTQQEGGEEEVGPVAQQAIAVAEPSTSECLRIEPDTTALSTNHETIDLLVQILRNCLRYFLPPSFPISKKQLSAMNSDELISFPLKEYFKQYEVGLQNLCNSYQSRADSRAKASEESLRTSERKLRETEEKLQKLRTNIVALLQKVQEDIDINTDDELDAYIEDLITKGD
B1 was tested, and the binding was “binds”.

No constants are given. Whether binding was seen depends on the method and setting. In cells and extracts the contact can be indirect. Binding calls can cover weak binding; strength is not graded here.
